Some of these results come from one statement about several compounds together.
Assay: Fluorescence measurements of cofluoron models (linker element monomers and their multimers with boronic acids)
Format: physicochemical
Conditions: 0.1M phosphate pH 7.4, 50% DMSO; for increase in fluorescence emission intensity of 7,8-dihydroxy-4-methylcoumarin on forming oligomer with boronic acid partner: 100 μM 7,8-dihydroxy-4-methylcoumarin + 300 μM boronic acid, excitation 350 nm, emission 520 nm; for increase in fluorescence intensity of multimer with 4-(4-methyl-3-oxido-5-phenyl-1H-imidazol-2-yl)-1,2-benzene diol: 100 μM diol + 300 μM boronic acid, excited at 350 nm

increase in fluorescence emission intensity of 7,8-dihydroxy-4-methylcoumarin on forming oligomer with boronic acid partner | increase in fluorescence intensity of multimer with 4-(4-methyl-3-oxido-5-phenyl-1H-imidazol-2-yl)-1,2-benzene diol | SMILES
≥ 3 fold |  | OB(O)c1cccnc1F [2-fluoropyridine-3-boronic acid]
≥ 3 fold |  | OB(O)c1cccc2ncccc12 [5-quinolinylboronic acid]
≥ 3 fold | > 30 fold | OCc1ccccc1B(O)O [2-(hydroxymethyl)phenylboronic acid]

Further lines, the compound ahead of its results:

SMILES | increase in fluorescence emission intensity of 7,8-dihydroxy-4-methylcoumarin on forming oligomer with boronic acid partner | increase in fluorescence intensity of multimer with 4-(4-methyl-3-oxido-5-phenyl-1H-imidazol-2-yl)-1,2-benzene diol
OB(O)c1cc2ccccc2o1 [benzofuran-2-boronic acid] | ≥ 3 fold | > 30 fold
OB(O)c1cc2ccccc2nc1Cl [2-chloroquinoline-3-boronic acid] | ≥ 3 fold | 
OB(O)c1cc(F)cc(F)c1 [3,5-difluorophenylboronic acid] | ≥ 3 fold | > 30 fold
